Data: the supplement of paper PMC9744312
Counter-ions that a name gives are not always drawn. Some of the results follow. The data scatter; read single values as rough.

The compounds below were run on Peyronie's disease tunica albuginea primary fibroblasts (assay: inhibition of TGF-beta1-induced alpha-SMA expression (myofibroblast transformation), relative to TGF-beta1-only and untreated controls; higher = stronger inhibition of myofibroblast transformation). Settings: 10 µM; TGF-beta1 10 ng/mL; 72 h.

SMILES	inhibition of TGF-beta1-induced alpha-SMA expression [%]
CN(Cc1ccc(C(C)(C)C)cc1)Cc1cccc2ccccc12 [Butenafine HCl]	10.7
O=C1N=C(O)NC1(c1ccccc1)c1ccccc1 [Phenytoin Sodium]	3
CC1(C)O[C@@H]2[C@@H](CO[C@@]3(COS(N)(=O)=O)OC(C)(C)O[C@@H]23)O1 [Topiramate]	71.5
COc1cc(NS(=O)(=O)c2ccc(N)cc2)nc(OC)n1 [Sulphadimethoxine]	32.8
CCNC(=O)[C@@H]1CCCN1C(=O)[C@H](CCCNC(=N)N)NC(=O)[C@H](CC(C)C)NC(=O)[C@@H](CC(C)C)NC(=O)[C@H](Cc1ccc(O)cc1)NC(=O)[C@H](CO)NC(=O)[C@H](Cc1c[nH]c2ccccc12)NC(=O)[C@H](Cc1c[nH]cn1)NC(=O)[C@@H]1CCC(=O)N1 [Leuprolide Acetate]	40.9
CCNC(=O)[C@@H]1CCCN1C(=O)[C@H](CCCNC(=N)N)NC(=O)[C@H](CC(C)C)NC(=O)[C@@H](CC(C)C)NC(=O)[C@H](Cc1ccc(O)cc1)NC(=O)[C@H](CO)NC(=O)[C@H](Cc1c[nH]c2ccccc12)NC(=O)[C@H](Cc1c[nH]cn1)NC(=O)[C@@H]1CCC(=O)N1 [Leuprorelin Acetate]	7.9
CN(C)c1cc(NC(=O)CNC(C)(C)C)c(O)c2c1C[C@H]1C[C@H]3[C@H](N(C)C)C(O)=C(C(N)=O)C(=O)[C@@]3(O)C(O)=C1C2=O [Tigecycline]	-8.63
Cn1nnc(-c2ccc(-c3ccc(N4C[C@H](CO)OC4=O)cc3F)cn2)n1 [Tedizolid]	18.2
Cc1cccc(Nc2ccncc2S(=O)(=O)NC(=O)NC(C)C)c1 [Torsemide]	9.49
NC1=NCC2c3ccccc3Cc3ccccc3N12 (configuration not stated) [Epinastine HCl]	> 100
NC(=O)N1c2ccccc2CC(=O)c2ccccc21 [Oxcarbazepine]	11.9
CC(C)Cn1cnc2c(N)nc3ccccc3c21 [Imiquimod]	19
CC(C)(C)NCC(O)COc1cccc2c1CC(O)C(O)C2 (configuration not stated) [Nadolol]	17
Nc1ccccc1NC(=O)c1ccc(CNc2nccc(-c3cccnc3)n2)cc1 [Mocetinostat (MGCD0103)]	73.5
CC(C)CCCCC(=O)N[C@@H](CCN)C(=O)N[C@H](C(=O)N[C@@H](CCN)C(=O)N[C@H]1CCNC(=O)[C@H]([C@@H](C)O)NC(=O)[C@H](CCN)NC(=O)[C@H](CCN)NC(=O)[C@H](CC(C)C)NC(=O)[C@@H](Cc2ccccc2)NC(=O)[C@H](CCN)NC1=O)[C@@H](C)O [Polymyxin B sulphate]	52.7
CCOCCn1c(N2CCCN(C)CC2)nc2ccccc21 [Emedastine]	8.78
CCOCCn1c(N2CCCN(C)CC2)nc2ccccc21 [Emedastine Difumarate]	16.2
Cc1cccn2c(=O)c(-c3nnn[nH]3)cnc12 [Pemirolast potassium]	26.9
CC[C@H](C)C(=O)O[C@H]1C[C@H](O)C=C2C=C[C@H](C)[C@H](CC[C@@H](O)C[C@@H](O)CC(=O)O)[C@H]21 [Pravastatin sodium]	9.37
CC1=C(C(=O)O)N2C(=O)[C@@H](NC(=O)[C@H](N)c3ccccc3)[C@H]2SC1 [Cephalexin]	-2.37
Cc1nccn1CC1CCc2c(c3ccccc3n2C)C1=O (configuration not stated) [Ondansetron HCl]	15.7

SMILES	inhibition of TGF-beta1-induced alpha-SMA expression [%]
Cc1nccn1CC1CCc2c(c3ccccc3n2C)C1=O (configuration not stated) [Ondansetron Hydrochloride Dihydrate]	4.67
CC(=O)NC[C@H]1CN(c2ccc(N3CCOCC3)c(F)c2)C(=O)O1 [Linezolid]	18.6
COc1ccc2c(c1)c(CC(=O)OCC(=O)O)c(C)n2C(=O)c1ccc(Cl)cc1 [Acemetacin]	7.04
COc1cc2c(cc1Cc1cccc(Cl)c1F)c(=O)c(C(=O)O)cn2[C@H](CO)C(C)C [Elvitegravir (GS-9137, JTK-303)]	39.8
COc1ccc2cc3[n+](cc2c1OC)CCc1cc2c(cc1-3)OCO2 [Berberine chloride]	27.9
COc1ccc2cc3[n+](cc2c1OC)CCc1cc2c(cc1-3)OCO2 [Berberine Sulfate]	34.4
Cc1cc(Nc2cc(CN3CCOCC3)c3nc(C)c(Cc4ccc(Cl)cc4F)n3n2)n[nH]1	92.3
CCOC(=O)N[C@@H]1CC[C@@H]2[C@@H](C1)C[C@H]1C(=O)O[C@H](C)[C@H]1[C@H]2/C=C/c1ccc(-c2cccc(F)c2)cn1 [Vorapaxar]	-35.2
Nc1nnc(-c2cccc(Cl)c2Cl)c(N)n1 [Lamotrigine]	-1.86
CC[C@@]1(O)C(=O)OCc2c1cc1n(c2=O)Cc2cc3c(CN(C)C)c(O)ccc3nc2-1 [Topotecan HCl]	> 100
Nc1nc(=O)[nH]cc1F [Flucytosine]	10.1
CN(C)C(=O)c1cc2cnc(Nc3ccc(N4CCNCC4)cn3)nc2n1C1CCCC1 [Ribociclib (LEE011)]	22.5
CC(=O)O[C@]1(C(C)=O)CC[C@H]2[C@@H]3C=C(C)C4=CC(=O)CC[C@]4(C)[C@H]3CC[C@@]21C [Megestrol Acetate]	53.7
C=C1[C@H](CO)[C@@H](O)C[C@@H]1n1cnc2c(=O)[nH]c(N)nc21 [Entecavir]	-5.49
C=C1[C@H](CO)[C@@H](O)C[C@@H]1n1cnc2c(=O)[nH]c(N)nc21 [Entecavir Hydrate]	23.9
CC/C=C(\C(=O)N[C@@H]1C(=O)N2C(C(=O)OCOC(=O)C(C)(C)C)=C(COC(N)=O)CS[C@H]12)c1csc(N)n1 [Cefcapene Pivoxil Hydrochloride]	-1.1
CC(=O)[O-].[K+] [Potassium acetate]	-28.1
Cc1ccc(C(C)C)c(O)c1 [Thymol]	39
C#CC1(O)CC[C@H]2[C@@H]3CCC4=CC(=O)CC[C@@H]4[C@H]3CC[C@@]21CC (some centres not stated) [Norgestrel]	34.7
N[C@@H](CC(=O)N1CCn2c(nnc2C(F)(F)F)C1)Cc1cc(F)c(F)cc1F [Sitagliptin phosphate monohydrate]	24.5
N[C@@H](CC(=O)N1CCn2c(nnc2C(F)(F)F)C1)Cc1cc(F)c(F)cc1F [Sitagliptin]	12

Part of the list above in a different format:

| SMILES | inhibition of TGF-beta1-induced alpha-SMA expression [%] |
| --- | --- |
| Nc1nc(=O)[nH]cc1F [Flucytosine] | 10.1 |
| CN(C)C(=O)c1cc2cnc(Nc3ccc(N4CCNCC4)cn3)nc2n1C1CCCC1 [Ribociclib (LEE011)] | 22.5 |
